Reference: PMC3416860, “TC10 Is Regulated by Caveolin in 3T3-L1 Adipocytes” (PLoS ONE, 2012)
These are yes or no findings as the source states them, for the method shown. For part of these data: In cells and extracts the contact can be indirect. Some results given as binding are weak or reduced against the parent protein; the word gives no strength.

Protein sequences, listed by entry. Tags and fused reporters are not part of them.
UniProt P17081: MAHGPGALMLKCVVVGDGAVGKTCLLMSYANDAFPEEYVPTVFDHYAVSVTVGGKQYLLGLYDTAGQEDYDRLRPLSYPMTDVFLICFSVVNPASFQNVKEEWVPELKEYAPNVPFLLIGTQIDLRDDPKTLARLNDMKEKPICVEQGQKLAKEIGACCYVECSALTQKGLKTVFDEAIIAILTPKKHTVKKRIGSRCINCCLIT

Key:
[1] = target: myc-Caveolin 1 wild-type (pKMyc-Caveolin 1) (UniProt Q03135); assay: co-IP; COS-1 cells co-transfected with myc-Caveolin 1 and HA-TC10 plasmids; lysed in HNTG buffer (50 mM HEPES pH 7.4, 150 mM NaCl, 10% glycerol, 1% Triton X-100); immunoprecipitated with anti-myc antibodies and Protein A/G beads, blotted for HA
[2] = target: T1, GST-TC10 (human, UniProt P17081 1-205); assay: pull-down; GST-TC10 on glutathione-agarose beads, preincubated with nucleotides as indicated (GDP or a nonhydrolyzable GTP analog), used to precipitate proteins from a 3T3-L1 adipocyte lysate; blot with anti-Caveolin antibodies; only the target purified
T1 construct: TC10 (RhoQ); Expression plasmid obtained from Dr. Ian Macara; Used as purified (with endogenous GDP) or preincubated with GDP or a nonhydrolyzable GTP analog; also called TC10-GDP; source: E. coli Rosetta-gami (DE3), purified (glutathione-agarose)

[3] = target: T1, GST-TC10; assay: pull-down; purified MBP-Caveolin 1(1-99) and GST-TC10 incubated with GDP overnight at 4 C; glutathione agarose 1 h, washed, eluted in SDS sample buffer; blots with anti-GST or anti-MBP; both purified

Molecule: HA-TC10 wild-type (pKH3-TC10), in COS-1 cells (from UniProt P17081 1-205)
- binding [1]: binds

B1: Caveolin 1, endogenous in 3T3-L1 adipocytes (natural protein, mouse (endogenous in 3T3-L1), UniProt P49817 1-178, looked up)
chain: MSGGKYVDSEGHLYTVPIREQGNIYKPNNKAMADEVTEKQVYDAHTKEIDLVNRDPKHLNDDVVKIDFEDVIAEPEGTHSFDGIWKASFTTFTVTKYWFYRLLSTIFGIPMALIWGIYFAILSFLHIWAVVPCIKSFLIEIQCISRVYSIYVHTFCDPLFEAIGKIFSNIRISTQKEI
notes: Caveolin 1, endogenous, detected with anti-Caveolin antibodies; source: endogenous, 3T3-L1 adipocyte lysate
- binding [2]: binds

B2: MBP-Caveolin 1(1-99) (domain or fragment, UniProt Q03135 1-99, looked up)
chain: MSGGKYVDSEGHLYTVPIREQGNIYKPNNKAMADELSEKQVYDAHTKEIDLVNRDPKHLNDDVVKIDFEDVIAEPEGTHSFDGIWKASFTTFTVTKYWF
notes: Caveolin 1, the first 99 amino acids; The vector may add further tags and a TEV site; source: E. coli Rosetta-gami (DE3), purified (amylose resin)
- binding [3]: binds
